Laboratory results as given in patent publication US20250009795A1.
Results are given in words; binding and its absence hold for the method and conditions named. Some binding calls cover weakened binding; strength is not graded here. One block for each binder: values may come before it.

What was measured:
[1] = biological target: EGFR domain IV (immobilized on CM5 chip) (human) (UniProt P00533); experiment: SPR: EGFR domain IV immobilized on CM5 chip (500 RU), IgG at 30, 10, 3 nM, 25 °C
[2] = biological target: EGFR domain IV (immobilized on CM5 chip) (human) (UniProt P00533); experiment: SPR, EGFR domain IV immobilized on CM5 chip at 500 RU, IgG injected at 30, 10 and 3 nM, 25 C
[3] = biological target: EGFRviii on U87-EGFRviii cells (UniProt P00533); experiment: flow cytometry, U87-EGFRviii cells, 1, 10 or 100 ug/ml antibody, anti-Fc Alexa-647 secondary
[4] = biological target: EGFRviii on U87-EGFRviii cells (UniProt P00533); experiment: flow cytometry on U87-EGFRviii cells, 1, 10, 100 ug/ml antibody, anti-Fc Alexa-647 secondary
[5] = biological target: EGFRviii on U87-EGFRviii cells (UniProt P00533); experiment: flow cytometry: U87-EGFRviii cells, 1, 10, 100 µg/ml antibody at 4 °C, anti-Fc Alexa-647 secondary
[6] = biological target: EGFR-His (UniProt P00533); experiment: ELISA with various recombinant proteins
[7] = biological target: EGFR-His (UniProt P00533); experiment: ELISA: recombinant proteins coated, purified 5C8 mAb, OD450

B1: EGFRD4-28Ab (antibody, V domains shown)
VH: EVQLQQSGPELVKPGASVKISCKASGYSFTGYYMHWVKQSHVKSLEWIGRINPYNGATIYNQNFKDKASLTVDKSSSTAYMELHSLTSEDSAVYYCARDDYEGAMDYWGQGTSVTVSS
VL: NIMMTQLPSSLAVSAGEKVTMSCKSSQSVLYISNQKNYLAWFQQKPGQSPKLLIYWASTRESGVPDRFTGSGSGTDFTLTISSVQAEDLAVYYCHQYFSSYTFGGGTKLEIK
binding [1]: binds | binding [2]: binds

B4: EGFRD4-30Ab (antibody, V domains shown)
VH: DVQLQESGPDLVKPSQSLSLTCTVTGYSITSGDSWHWIRQFPGNKLEWMGYIHYSGSTKYNPSLKSRISITRDTSKNQFFLQLNSVTTEDTATYYCASWFYYAMDYWGQGTSVTVSS
VL: ENVLTQSPAIMSASPGEKVTMTCRASSSVSSSYLHWFQQKSGASPKLWIYSTSNLASGVPARFSGSGSGTSYSLTISSVEAEDAATYYCQQYSGFPLTFGAGTKLELK
binding [1]: binds | binding [2]: binds

B5: EGFRD4-34Ab (antibody, V domains shown)
VH: QIQLVQSGPELKKPGETVKISCKASGYTFTNYGMNWVKQAPGKGLKWMGWINTYTGDPTYADDFKGRFAFSLETSASTAYLQINNLKNEDMATYFCARRISTMITTWFAYWGQGTLVTVSA
VL: DIQMTQSPASLSASVGETVTITCRASENIYSYLAWFQQRQGKSPQLLVYNAKTLTEGVPSRFSGSGSGTQFSLKINSLQPEDFGSYYCQHYQVTPYTFGGGTKLEIK
binding [1]: binds | binding [2]: binds

Next, values leading:

binding [3]: binds | binding [4]: binds | binding [5]: binds
B2: chimeric anti-domain IV EGFR antibody clone 5C8 (EGFRD4-5C8) (antibody, V domains shown)
VH: EVQLQQSGPELVKTGASVKISCKASGYSFTGYYMHWVKQSHGKSLEWIGYINCYNGAINYNQKFKGKATFTVDTSSSTVYMQFNSLTSEDSAVYYCVRAGIHYDYDEAWFAYWGQGTLVTVSA
VL: QAVVTQESALTTSPGETVTLTCRSSTGPVIIRNYANWVQEKPDHLFTGLIGGTNNRAPGVPARFSGSLIGDKAALTITGAQTEDEAIYFCALWYNNHWVFGGGTKLTVL

binding [6]: binds | binding [7]: binds
B3: hybridoma clone 5C8 (mouse antibody, culture supernatant) (antibody, V domains shown)
VH: B2 VH
VL: B2 VL
